# Data published in PubChem BioAssay AID504444 (National Center for Advancing Translational Sciences (NCATS), 2011).
# The campaign covered roughly 360,000 compounds. About 7,500 (2.1%) were called active. Inconclusive results, whose numbers are uncertain, are shown with a selection of clear calls. Calls follow the shape of the dose curve; as a rule, active = well fitted inhibition curve with a large enough effect; inconclusive = small, poorly fitted or top-dose-only effect, or effect the other way; inactive = flat fitted curve, though single readings scatter. Where the call is inconclusive, the potency comes from a doubtful curve fit.
# Experiment: Nrf2 qHTS screen for inhibitors; also: nearly all actives have a fitted effect of over 60% in size
# Conditions: A549 ARE-Fluc reporter, luciferase luminescence, 18-24 h; series mostly up to 46 µM
# Procedure, shortened: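 Cells were seeded and rested 2 h, then exposed to compounds for 18-24 h. CellTiter-Fluor was read first as a viability measure. BugLite was added 15 min before the final luminescent read of ARE-luciferase activity in A549 cells.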
# Potency is read from the fitted curve at half-maximal effect.
row,Compound,Potency
1,O=Nc1c(O)c2ccccc2c2ccccc12,active: 23.1 µM
2,CCOC(=O)C1CCN(Cc2coc3ccc(Cl)cc3c2=O)CC1,"inconclusive: 6.51 µM [activator, single point]"
3,O=C(Oc1ccc2ccccc2c1Cl)N1CCCC1,"inconclusive: 20.6 µM [activator, partial curve]"
4,Cc1sc2c(c1C)C(c1ccc(C(C)(C)C)cc1)=NCC(=O)N2CC(=O)Nc1nccs1,active: 11.6 µM
5,O=[N+]([O-])c1ccc(CN2CC=C(c3ccccc3)CC2)cc1,"inconclusive: 16.4 µM [activator, partial curve, poor fit]"
6,CN1C(=O)C(=Cc2ccccc2OCc2ccc(Cl)cc2)C(=O)N(C)C1=O,"inconclusive: 4.61 µM [activator, full curve]"
7,ClCCN(CCCl)c1ccc(C=Cc2ccncn2)cc1,"inconclusive: 29.1 µM [activator, single point]"
8,Cc1ccccc1NC(=NCCCN1CC1)Nc1ccccc1C,inactive
9,CC1(C)OC(c2ccccc2)=C/C(=C/C=C2C(=O)NC(=O)NC2=O)O1,"inconclusive: 29.1 µM [falling, single point]"
10,Cc1ccc(Cl)cc1N1CCN(C(=O)C2CCC(CNS(=O)(=O)c3cccs3)CC2)CC1 (stereo not given),active: 10.3 µM
11,CCCC(c1nnnn1Cc1cccs1)N1CCN(c2nc3ccccc3s2)CC1 (stereo not given),"inconclusive: 23.1 µM [falling, partial curve]"
12,CC(C)N(Cc1nccn1C)C(=O)CCc1nnc(CCCc2ccccc2)o1,"inconclusive: 8.2 µM [activator, partial curve]"
13,Cn1cc[n+](C)c1P(=S)(c1ccccc1)c1ccccc1,"inconclusive: 1.16 µM [falling, full curve]"
14,CC(C)c1cccc(O)c(=O)c1,"inconclusive: 18.4 µM [falling, single point]"
15,COc1ccc(CC2c3cc(OC)c(OC)cc3CCN2C)cc1O (stereo not given),inactive
16,O=C1C2CCCN2C(c2cccs2)N1c1ccccn1 (stereo not given),"inconclusive: 0.013 µM [falling, full curve, poor fit]"
17,CCc1cccc(NC(=O)c2ccc(NC(=O)N3CCSc4ncccc43)cc2)c1,"inconclusive: 18.4 µM [falling, single point]"
18,O=C(COc1ccccc1Cl)Nc1ccc2nc(SCC(=O)N3CCCC3)sc2c1,"inconclusive: 29.1 µM [falling, single point]"
19,CN(C)CC(C(=O)Cc1ccccc1)c1ccccc1 (stereo not given),inactive
20,COc1ccc(-c2cc(=O)c3c(OC)c(OC)c(OC)cc3o2)cc1,"inconclusive: 9.2 µM [falling, partial curve, poor fit]"
21,CCOc1cccc(CNC2CN3CCC2CC3)c1 (stereo not given),"inconclusive: 6.51 µM [activator, single point]"
22,CC(c1nccs1)N(C)C(=O)c1cn(Cc2cccc3ccccc23)nn1 (stereo not given),"inconclusive: 7.31 µM [activator, partial curve]"
23,O=C(NN=Cc1ccc(N(CCCl)CCCl)cc1)C(=O)c1c[nH]c2ccccc12,"inconclusive: 29.1 µM [falling, single point]"
24,CCn1cc(C(=O)NCCc2ccc(OC)c(OC)c2)c(=O)c2cc(S(=O)(=O)N(C)C3CCCCC3)ccc21,"inconclusive: 25.9 µM [falling, single point]"

# An excerpt from above in order of heavy-atom count, smallest number first:
row,Compound,Potency
21,CCOc1cccc(CNC2CN3CCC2CC3)c1 (stereo not given),"inconclusive: 6.51 µM [activator, single point]"
8,Cc1ccccc1NC(=NCCCN1CC1)Nc1ccccc1C,inactive
20,COc1ccc(-c2cc(=O)c3c(OC)c(OC)c(OC)cc3o2)cc1,"inconclusive: 9.2 µM [falling, partial curve, poor fit]"
18,O=C(COc1ccccc1Cl)Nc1ccc2nc(SCC(=O)N3CCCC3)sc2c1,"inconclusive: 29.1 µM [falling, single point]"
10,Cc1ccc(Cl)cc1N1CCN(C(=O)C2CCC(CNS(=O)(=O)c3cccs3)CC2)CC1 (stereo not given),active: 10.3 µM
24,CCn1cc(C(=O)NCCc2ccc(OC)c(OC)c2)c(=O)c2cc(S(=O)(=O)N(C)C3CCCCC3)ccc21,"inconclusive: 25.9 µM [falling, single point]"

# The list continues:

row,Compound,Potency
1,O=C(COc1ccc(Cl)cc1)N(c1ccc(Cl)cc1)C1CN2CCC1CC2 (stereo not given),inactive
2,COc1cc(CN2CCNCC2)cc(OC)c1OC,inactive
3,ClCCN1CCN(c2ccnc3cc(Cl)ccc23)CC1,"inconclusive: 29.1 µM [falling, single point]"
4,CCC1(OC(=O)CN)C(=O)OCc2c1cc1n(c2=O)Cc2cc3ccccc3nc2-1 (stereo not given),active: 0.58 µM
5,Cc1cc(-c2ccc(C)c(S(=O)(=O)N3CCOc4ccc(Cl)cc43)c2)on1,"inconclusive: 29.1 µM [falling, single point]"
6,C=C1C(=O)OC2CC(C)C3C=CC(=O)C3(C)C(O)C12 (stereo not given),active: 5.8 µM
7,Cc1ccsc1C(=O)C1CCCN(Cc2ccc(-n3cccn3)cc2)C1 (stereo not given),"inconclusive: 8.2 µM [falling, partial curve]"
8,CCCCCCCC(=O)OCC(COC(=O)CCCCCCC)OC(=O)CCCCCCC,"inconclusive: 16.4 µM [falling, partial curve, poor fit]"
9,COC(=O)C1=C(c2ccc(F)cc2OCc2ccccc2)C[C@@H]2CC[C@H]1N2C(=O)NCc1ccc(C(F)(F)F)cc1,active: 18.4 µM
10,Cc1nc(N2CCN(Cc3ccccc3)CC2)nc2c1C(=O)CC(C)C2 (stereo not given),"inconclusive: 18.4 µM [falling, single point]"
11,Cc1nc(CCl)cc(=O)[nH]1,"inconclusive: 23.1 µM [activator, single point]"
12,COC(=O)C1=C(c2ccccc2OCc2ccccc2)C[C@@H]2CC[C@H]1N2C(=O)NCCOc1ccccc1Cl,"inconclusive: 29.1 µM [falling, single point]"
13,CN1C(=O)/C(=C/c2ccc(Cl)s2)C(=O)NC1=S,"inconclusive: 2.31 µM [falling, full curve, poor fit]"
14,Cn1cc(C(=O)OCC(=O)Nc2ccccc2)c2ccccc21,"inconclusive: 23.1 µM [falling, partial curve]"
15,CN(C)C(=O)Oc1ccnc2cc(Cl)ccc12,"inconclusive: 29.1 µM [falling, single point]"
16,O=c1[nH]c(=O)n(Cc2ccc(F)cc2)c(O)c1C=NCCCO,inactive
17,CC1(C)c2[nH]c3ccccc3c2C[C@@H]2C(=O)N(Cc3ccccc3F)C(=O)N21,inactive
18,COc1ccc(CCNc2nc3c(c(=O)n(C)c(=O)n3C)n2Cc2ccc(F)cc2)cc1OC,active: 16.4 µM
19,O=c1[nH]c(O)c(C=NCCc2ccccc2)c(=O)[nH]1,inactive
20,CC[n+]1c(/C=C/N(C)c2ccccc2)sc2ccc(Cl)cc21,"inconclusive: 9.2 µM [falling, partial curve]"
21,CCc1ccc(OCC(=O)N2CCN(CCc3ccccn3)CC2)cc1,inactive
22,c1ccc(N2CCN(c3ncnc4c3nc3n4CCCC3)CC2)cc1,active: 23.1 µM
23,CCN(CC)c1ccc(C=C2C(=O)NC(=S)NC2=O)cc1,"inconclusive: 29.1 µM [falling, partial curve, poor fit]"
24,CC(Cc1ccccc1)NC(=O)/C=C/c1ccc(Cl)cc1 (stereo not given),inactive

row,Compound,Potency
1,C#C[C@]1(O)CCC2C3C(=O)C=C4C=CCC[C@]4(C)C3CC[C@@]21C (stereo not given in full),inactive
2,COc1ccc2c(c1)NP(=S)(c1ccccc1)N2 (stereo not given),"inconclusive: 23.1 µM [activator, partial curve]"
3,CCCOC(=O)c1ccc(-[n+]2c(-c3ccccc3)cc(-c3ccccc3)cc2-c2ccccc2)cc1,"inconclusive: 23.1 µM [falling, single point]"
4,CC12CCC(O)CC1CCC1C2CCC2(C)C(C3=CC(=O)OC3)CCC12O (stereo not given),active: 0.411 µM
5,Cc1cc(N2CCNCC2)nc2ccccc12,"inconclusive: 32.6 µM [falling, single point]"
6,COc1ccc(NC(=O)c2c(C)nn(Cc3ccccc3Cl)c2Cl)cc1Cl,inactive
7,COC(=O)C1=C(c2ccc(Cl)c(C(F)(F)F)c2)C[C@@H]2CC[C@H]1N2C(=O)NCc1cc(C)oc1C(F)(F)F,"inconclusive: 29.1 µM [falling, single point]"
8,CCOC(=O)c1ccc(NC(=O)Nc2cc3c(cc2N2CCCCC2)n(CC)c(=O)n3CC)cc1,"inconclusive: 29.1 µM [falling, single point]"
9,CC(=O)O[C@H]1[C@H]2O[C@]23[C@@H]2CC[C@]4(O)C[C@@H](O)CC[C@]4(C)C2CC[C@]3(C)[C@H]1c1ccc(=O)oc1 (stereo not given in full),active: 0.058 µM
10,COc1ccc2[nH]c3c(c2c1)CCN1C(=O)C(CC(=O)NCc2cccc(C(F)(F)F)c2)C[C@H](C(=O)N2CCCCC2)[C@@]31C (stereo not given in full),"inconclusive: 25.9 µM [falling, single point]"
11,Cc1oc(-c2ccc(Cl)cc2)nc1CN1C(=O)CN=C(c2ccccc2)c2cc(Cl)ccc21,"inconclusive: 18.4 µM [falling, single point]"
12,COc1ccc(CNC(=O)C2CCN(C(=O)c3cnn(-c4ccccc4)c3-n3cccc3)CC2)cc1,"inconclusive: 20.6 µM [falling, single point]"
13,c1ccc(-c2ccc(C(c3ccccc3)n3ccnc3)cc2)cc1 (stereo not given),"inconclusive: 29.1 µM [falling, partial curve, poor fit]"
14,NC(=O)c1c(Br)n(C2OC(CO)C(O)C2O)c2ncnc(N)c12 (stereo not given),"inconclusive: 9.2 µM [falling, partial curve]"
15,CC(=O)O[C@H]1C[C@@H]2OC3C=C(C)CCC3(C)[C@@]1(C)[C@@]21CO1 (stereo not given in full),active: 6.51 µM
16,CCn1cc(C(=O)c2cccs2)c2ccccc21,inactive
17,CCn1c(C)c(C(=O)Nc2ccc(OC)cc2)c2cc(OC)ccc21,"inconclusive: 29.1 µM [activator, single point]"
18,CCC(=Nc1ccc2c(c1)CCC2)c1c(O)n(C)c(=O)n(C)c1=O,"inconclusive: 10.3 µM [falling, partial curve, poor fit]"
19,COc1ccc(-n2c(/C=C/c3ccc(O)c(O)c3)nc3ccccc3c2=O)cc1,inactive
20,COP(=O)(OC)C(NC(=O)/C=C/c1ccccc1)C(Cl)(Cl)Cl (stereo not given),inactive
21,O=c1[nH]c(=O)n(Cc2ccccc2)c(O)c1C=NCCN1CCNCC1,"inconclusive: 0.731 µM [activator, full curve, poor fit]"
22,CC(C)Oc1ccc(CC2(CCc3ccncc3)C(=O)NC(=O)NC2=O)cc1,"inconclusive: 23.1 µM [falling, partial curve, poor fit]"
